We go through one molecule from doi:10.1101/2020.05.06.080465.

This assay addresses NEDD8 activating complex NAE1-UBA3 (human (endogenous in HeLa)) (UniProt Q13564+Q8TBC4). The assay can be described thus: SEC. A general note: In gel filtration, larger molecules generally elute earlier.

No constants are given. Whether binding was seen depends on the method and setting. Some binding calls cover weakened binding; strength is not graded here.

B1: ASB6 (protein, UniProt Q9NWX5 1-421)
chain: MPFLHGFRRIIFEYQPLVDAILGSLGIQDPERQESLDRPSYVASEESRILVLTELLERKAHSPFYQEGVSNALLKMAELGLTRAADVLLRHGANLNFEDPVTYYTALHIAVLRNQPDMVELLVHHGADVNRRDRIHESSPLDLASEEPERLPCLQRLLDLGADVNAADKHGKTALLHALASSDGVQIHNTENIRLLLEGGADVKATTKDGDTVFTCIIFLLGETVGGDKEEAQMINRFCFQVTRLLLAHGADPSECPAHESLTHICLKSFKLHFPLLRFLLESGAAYNCSLHGASCWSGFHIIFERLCSHPGCTEDESHADLLRKAETVLDLMVTNSQKLQLPENFDIHPVGSLAEKIQALHFSLRQLESYPPPLKHLCRVAIRLYLQPWPVDVKVKALPLPDRLKWYLLSEHSGSVEDDI
On to B1, for which the binding entry is listed as “binds”.
